PubChem BioAssay AID493246 | Drosophila RNAi Screening Center – 2011
Purpose: 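Identify essential fly genes by loss of cell viability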 (primary screen). System: Drosophila Kc and S2R+ cells. Reagents: long dsRNA against Drosophila genes. Measurement: 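Raw, unnormalised count of remaining cells in each well; per-plate z-scores of cell number underlie the calls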. Scale: Kc cell number and S2R+ cell number: higher = more cells remaining. Call rule: 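Counted as a hit if cell number falls by a z-score of at least 3 within its plate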.
In all, the deposit lists about 21,000 reagents; below is an unselected part of those with a known target gene and a result. Over the whole deposit, 429 (2%) got an active call. 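Values are raw and not normalised between plates; calls rest on per-plate z-scores that were not deposited.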 Not stated in the record: the amount of reagent, the time to read-out.

no.	target	PubChem SID	Kc cell number, rep 1	Kc cell number, rep 2	S2R+ cell number, rep 1	S2R+ cell number, rep 2	outcome
1	d-cup (davis-cup)	SID104194638	1.79e6	1.87e6	1.29e6	1.48e6	inactive
2	how (held out wings)	SID104196758	1.09e6	1.06e6	9.33e5	1.03e6	inactive
3	dnt (doughnut on 2)	SID104183314	1.31e6	1.35e6	1.24e6	1.24e6	inactive
4	Ifrd1 (Interferon-related developmental regulator 1)	SID104180207	1.56e6	1.54e6	1.13e6	1.28e6	inactive
5	Ifrd1 (Interferon-related developmental regulator 1)	SID104180358	1.54e6	1.53e6	1.12e6	1.32e6	inactive
6	GC2	SID104194268	1.89e6	1.90e6	1.30e6	1.26e6	inactive
7	CG10175	SID104193420	1.01e6	1.21e6	1.04e6	1.06e6	inactive
8	CG10175	SID104193992	1.42e6	1.38e6	1.08e6	1.13e6	inactive
9	CG8072	SID104190752	1.40e6	1.53e6	1.30e6	1.28e6	inactive
10	Cys (Cystatin-like)	SID104196429	1.31e6	1.41e6	1.06e6	1.18e6	inactive
11	Sgf11 (SAGA associated factor 11kDa)	SID104189779	1.49e6	1.61e6	1.40e6	1.56e6	inactive
12	fd96Ca (forkhead domain 96Ca)	SID104196738	1.49e6	1.38e6	9.10e5	1.02e6	inactive
13	Scsalpha1 (Succinyl-coenzyme A synthetase alpha subunit 1)	SID104188490	1.39e6	1.54e6	1.13e6	9.62e5	inactive
14	scro (scarecrow)	SID104196891	1.47e6	1.60e6	1.01e6	1.11e6	inactive
15	scro (scarecrow)	SID104196894	1.72e6	1.82e6	1.01e6	1.21e6	inactive
16	CG13578	SID104184006	1.74e6	1.80e6	1.37e6	1.42e6	inactive
17	narya	SID104199231	1.67e6	1.74e6	1.17e6	1.31e6	inactive
18	Pura (Puratrophin-1-like)	SID104188683	1.52e6	1.58e6	1.14e6	1.30e6	inactive
19	Pura (Puratrophin-1-like)	SID104190654	1.46e6	1.31e6	1.11e6	1.16e6	inactive
20	Pura (Puratrophin-1-like)	SID104190656	1.51e6	1.38e6	1.13e6	1.21e6	inactive
21	Pura (Puratrophin-1-like)	SID104190657	1.27e6	1.43e6	1.09e6	1.08e6	inactive
22	Pura (Puratrophin-1-like)	SID104190658	1.39e6	1.34e6	1.15e6	1.22e6	inactive
23	slf (schlaff)	SID104180375	1.49e6	1.37e6	1.11e6	1.22e6	inactive
24	CG16749	SID104194938	1.68e6	1.63e6	1.29e6	1.44e6	inactive
25	CG3515	SID104180401	1.57e6	1.62e6	1.08e6	1.29e6	inactive
26	Cypl (Cyclophilin-like)	SID104188154	1.34e6	1.31e6	1.10e6	1.32e6	inactive
27	CG15258	SID104182270	1.55e6	1.73e6	1.18e6	1.28e6	inactive
28	Cyp301a1 (Cytochrome P450 301a1)	SID104187157	1.53e6	1.55e6	1.32e6	1.39e6	inactive
29	CG6153	SID104182727	1.34e6	1.44e6	1.24e6	1.24e6	inactive
30	MTPAP (mitochondrial poly(A) polymerase)	SID104198377	1.44e6	1.47e6	9.96e5	1.10e6	inactive
31	CG17601	SID104200431	1.44e6	1.46e6	1.00e6	1.13e6	inactive
32	AstC-R2 (Allatostatin C receptor 2)	SID104189843	1.40e6	1.67e6	1.40e6	1.48e6	inactive
33	ash2 (absent, small, or homeotic discs 2)	SID104196694	1.54e6	1.56e6	1.14e6	1.20e6	inactive
34	CG15443	SID104180247	1.73e6	1.75e6	1.28e6	1.50e6	inactive
35	Vm32E (Vitelline membrane 32E)	SID104183266	1.50e6	1.50e6	1.09e6	1.26e6	inactive
36	be (ben)	SID104199399	5.74e5		7.82e5		inactive
37	be (ben)	SID104199736	1.53e6	1.55e6	1.06e6	1.18e6	inactive
38	be (ben)	SID104199737	1.59e6	1.59e6	1.11e6	1.22e6	inactive
39	Sox102F	SID104196996	5.13e5		8.43e5		inactive
40	CG31156	SID104195545	1.59e6	1.62e6	1.17e6	1.21e6	inactive
41	CG31156	SID104195547	1.64e6	1.67e6	9.60e5	1.15e6	inactive
